The values below come from article PMC6872557.

These are yes or no findings as the source states them, for the method shown. In cells and extracts the contact can be indirect. Some entries that bind do so weakly or less than the wild type.

Test [1] addresses Flag-RUNX1 (Runt-Related Transcription Factor 1) (UniProt Q01196). Briefly: co-IP; Fig. 2b-e: U251 cells overexpressing Flag-RUNX1, Flag-SMAD3 or Flag-SUV39H1 with TGFβ protein for 4 h or 8 h; N9 cells overexpressing the same with LY2109761 for 24 h or 48 h; Western and IP lysis buffer, antibody and protein-A/G PLUS agarose at 4 °C overnight, three washes with RIPA, western blot. In general terms: Immunoblotting shows a protein as a band on a membrane.

The target in test [2] is RUNX1 (Runt-related transcription factor 1) (human (endogenous in U251, N9)) (UniProt Q01196). Briefly: co-IP; Fig. S9a: co-IP of RUNX1 with five partners taken from a STRING network, 'in vivo'; cells, bait and antibodies not shown; general method: Western and IP lysis buffer, antibody and protein-A/G PLUS agarose at 4 °C overnight, three washes with RIPA, western blot.

B1: SUV39H1 (protein, UniProt O43463 1-412)
chain: MAENLKGCSVCCKSSWNQLQDLCRLAKLSCPALGISKRNLYDFEVEYLCDYKKIREQEYYLVKWRGYPDSESTWEPRQNLKCVRILKQFHKDLERELLRRHHRSKTPRHLDPSLANYLVQKAKQRRALRRWEQELNAKRSHLGRITVENEVDLDGPPRAFVYINEYRVGEGITLNQVAVGCECQDCLWAPTGGCCPGASLHKFAYNDQGQVRLRAGLPIYECNSRCRCGYDCPNRVVQKGIRYDLCIFRTDDGRGWGVRTLEKIRKNSFVMEYVGEIITSEEAERRGQIYDRQGATYLFDLDYVEDVYTVDAAYYGNISHFVNHSCDPNLQVYNVFIDNLDERLPRIAFFATRTIRAGEELTFDYNMQVDPVDMESTRMDSNFGLAGLPGSPKKRVRIECKCGTESCRKYLF
B1: the binding entry in test [1] and in test [2] was “binds” each time.
